Results deposited as PubChem BioAssay AID1224830 (NIAID, 2016)

Test: 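Host factors that control LPS-induced TNF expression in human macrophages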 (primary screen)
Cells: human THP-1 monocytic leukaemia cells, TNF dual-luciferase reporter clone, PMA-differentiated to macrophage-like cells
Reagents: siRNA pool against human genes, 50 nM
Duration: LPS for 4 h, given about 3 days after siRNA transfection
Treatment: bacterial LPS (TLR4 ligand), 10 ng/ml
Detection: 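Ratio of firefly to renilla light, scaled to the plate median and expressed as a robust z-score per replicate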
Reading the numbers: TNF reporter robust z-score: higher = stronger TNF reporter response to LPS
Call rule: 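Each well counts as active if its z-score is over 2.8 or under -1.5; controls are left without a call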
The deposit covers about 18,000 reagents; this is a part drawn at random. About 2,900 of all reagents (16%) were called active. 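Calls are made per well; low scores hint the gene aids the LPS response, high scores that it dampens it.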 Reagents against one gene are numbered here. Repeated entries: four replicate wells of each siRNA pool.

Target gene	reagent no.	TNF reporter robust z-score	Outcome
OSTM1	1	-0.06	inactive
OSTM1	1	0.05	inactive
OSTM1	1	0.33	inactive
OSTM1	1	0.77	inactive
CEP152	1	-0.91	inactive
CEP152	1	-1.5	inactive
CEP152	1	-1.01	inactive
CEP152	1	-1.37	inactive
CXCL8	1	-0.76	inactive
CXCL8	1	-0.89	inactive
CXCL8	1	-0.19	inactive
CXCL8	1	-0.6	inactive
ITIH5	1	3.14	active
ITIH5	1	0.91	inactive
ITIH5	1	0.2	inactive
ITIH5	1	4.22	active
ALG13	1	1.93	inactive
ALG13	1	1.22	inactive
ALG13	1	2.3	inactive
ALG13	1	2.52	inactive
ALG13	2	1.97	inactive
ALG13	2	2.36	inactive
ALG13	2	0.44	inactive
ALG13	2	1.23	inactive
CIMIP4	1	0.44	inactive
CIMIP4	1	2.77	inactive
CIMIP4	1	-1	inactive
CIMIP4	1	0.42	inactive
FSHB	1	0.58	inactive
FSHB	1	-0.33	inactive
FSHB	1	0.05	inactive
FSHB	1	-0.04	inactive
NPS	1	0.63	inactive
NPS	1	0.5	inactive
NPS	1	-0.44	inactive
NPS	1	-0.41	inactive
IFT80	1	0.16	inactive
IFT80	1	1.49	inactive
IFT80	1	1.08	inactive
IFT80	1	0.61	inactive
METTL15	1	0.05	inactive
METTL15	1	-1.1	inactive
METTL15	1	0.55	inactive
METTL15	1	0.48	inactive
PRMT9	1	0.7	inactive
PRMT9	1	0.91	inactive
PRMT9	1	6.03	active
PRMT9	1	6.6	active
DHX58	1	0.18	inactive
DHX58	1	-0.03	inactive
DHX58	1	-0.01	inactive
DHX58	1	0.03	inactive
RFX1	1	-0.17	inactive
RFX1	1	0.63	inactive
RFX1	1	0.57	inactive
RFX1	1	0.72	inactive
TMPRSS11B	1	1.71	inactive
TMPRSS11B	1	1.67	inactive
TMPRSS11B	1	0.38	inactive
TMPRSS11B	1	1.77	inactive
PIH1D1	1	-0.39	inactive
PIH1D1	1	-0.26	inactive
PIH1D1	1	-1.13	inactive
PIH1D1	1	0.25	inactive
ABLIM3	1	-0.47	inactive
ABLIM3	1	0.58	inactive
ABLIM3	1	-0.01	inactive
ABLIM3	1	1.16	inactive
ZSCAN31	1	0.43	inactive
ZSCAN31	1	0.54	inactive
ZSCAN31	1	-0.03	inactive
ZSCAN31	1	0.53	inactive
CDK5RAP1	1	0.38	inactive
CDK5RAP1	1	0.93	inactive
CDK5RAP1	1	-0.76	inactive
CDK5RAP1	1	-0.36	inactive
SLC11A2	1	-0.96	inactive
SLC11A2	1	-0.72	inactive
SLC11A2	1	-0.82	inactive
SLC11A2	1	-1.02	inactive
POLG	1	-0.49	inactive
POLG	1	-0.33	inactive
POLG	1	0.18	inactive
POLG	1	-0.31	inactive
ZBTB1	1	-0.14	inactive
ZBTB1	1	-0.68	inactive
ZBTB1	1	0.01	inactive
ZBTB1	1	0.16	inactive
AGXT2	1	-0.28	inactive
AGXT2	1	-0.23	inactive
AGXT2	1	-0.36	inactive
AGXT2	1	-0.66	inactive
ZNF697	1	-0.16	inactive
ZNF697	1	0.5	inactive
ZNF697	1	0.52	inactive
ARCN1	1	-1.89	active
ARCN1	1	-1.66	active
ARCN1	1	-1.53	active
ARCN1	1	-1.9	active
KXD1	1	-0.77	inactive
KXD1	1	-0.24	inactive
KXD1	1	-0.01	inactive
KXD1	1	0.47	inactive
VBP1	1	-2.28	active
VBP1	1	0.44	inactive
VBP1	1	-0.53	inactive
VBP1	1	0.52	inactive
GUCY1A2	1	-0.07	inactive
GUCY1A2	1	1.87	inactive
GUCY1A2	1	1.7	inactive
GUCY1A2	1	2.34	inactive
